PubChem BioAssay AID1259405, NCATS, 2018
Here is a random part of about 50,000 deposited reagents. About 4,000 of them (8%) count as active. 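Mouse siRNA library applied to hamster cells; one well for each siRNA.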 A number with no mark means an inactive call. The numbers tell different reagents against one gene apart.

Aim: 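Mouse-designed siRNAs used to find CHO productivity engineering targets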 (primary screen)
Cell system: Chinese hamster CHO-K1 ovary cells with stable secreted eGFP expression
Reagents: single siRNA against mouse genes, 0.8 pmol siRNA per well (2 µl of 400 nM stock)
Timing: 3 days
Measurement: 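Percent of the per-plate non-targeting control median for intracellular GFP per well by laser scanning cytometry and for cell viability by ATP luminescence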
Scale: GFP, % of control: higher = more GFP per well, higher productivity; viability (ATP), % of control: higher = more viable cells (more ATP)
Rule for the call: 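Called active when intracellular GFP, relative to negative control, is at or above 120%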

For Fndc7 #1, what does the deposit list?
GFP, % of control: 67.2; viability (ATP), % of control: 83.9

Which result is listed for Fndc7 #2?
GFP, % of control: 48.4; viability (ATP), % of control: 52.8

For Fndc7 #3, what does the deposit list?
GFP, % of control: 62.7; viability (ATP), % of control: 77.9

How did the screen score Cltc #1?
GFP, % of control: 95.3; viability (ATP), % of control: 114

For Cltc #2, what does the deposit list?
GFP, % of control: 69.8; viability (ATP), % of control: 63.3

With Or4d11 #1, what was measured?
GFP, % of control: 87.5; viability (ATP), % of control: 90.5

What did the screen give for Or4d11 #2?
GFP, % of control: 148 (active); viability (ATP), % of control: 95.5

With Or4d11 #3, what was measured?
GFP, % of control: 57.9; viability (ATP), % of control: 104

Which result is listed for Atp11c #1?
GFP, % of control: 55.5; viability (ATP), % of control: 53.9

For Atp11c #2, what does the deposit list?
GFP, % of control: 55.4; viability (ATP), % of control: 63.1

What did the screen give for Atp11c #3?
GFP, % of control: 45.6; viability (ATP), % of control: 65.4

For Zfp148 #1, what does the deposit list?
GFP, % of control: 87.5; viability (ATP), % of control: 69.5

For Zfp148 #2, what does the deposit list?
GFP, % of control: 55.1; viability (ATP), % of control: 72.7

How did the screen score Vmn1r66 #1?
GFP, % of control: 99.2; viability (ATP), % of control: 87.4

With Vmn1r66 #2, how do the results read?
GFP, % of control: 95.3; viability (ATP), % of control: 77.9

With Vmn1r66 #3, how do the results read?
GFP, % of control: 65.7; viability (ATP), % of control: 44.8

Which result is listed for Aard #1?
GFP, % of control: 95.9; viability (ATP), % of control: 81.4

For Aard #2, what was measured?
GFP, % of control: 82.5; viability (ATP), % of control: 92.9

How did the screen score Aard #3?
GFP, % of control: 115; viability (ATP), % of control: 81.7

What did the screen give for Tubgcp3 #1?
GFP, % of control: 76.2; viability (ATP), % of control: 67.6

What is on record for Tubgcp3 #2?
GFP, % of control: 100; viability (ATP), % of control: 128

For Ggt7 #1, what does the deposit list?
GFP, % of control: 42.6; viability (ATP), % of control: 61

What did the screen give for Ggt7 #2?
GFP, % of control: 56.8; viability (ATP), % of control: 65.8

What did the screen give for Ggt7 #3?
GFP, % of control: 64.6; viability (ATP), % of control: 68.2

For Ptpn2 #1, how do the results read?
GFP, % of control: 64.7; viability (ATP), % of control: 79.4

Which result is listed for Ptpn2 #2?
GFP, % of control: 53.8; viability (ATP), % of control: 29.7

For Ptpn2 #3, what does the deposit list?
GFP, % of control: 86.2; viability (ATP), % of control: 88.7

With Trpm7 #1, what was measured?
GFP, % of control: 73.5; viability (ATP), % of control: 74.5

How did the screen score Trpm7 #2?
GFP, % of control: 84.3; viability (ATP), % of control: 56.2

For Trpm7 #3, what does the deposit list?
GFP, % of control: 75.7; viability (ATP), % of control: 59.7

With Rida #1, what was measured?
GFP, % of control: 52.9; viability (ATP), % of control: 64.9

For Rida #2, what was measured?
GFP, % of control: 127 (active); viability (ATP), % of control: 93.6

For Rida #3, how do the results read?
GFP, % of control: 144 (active); viability (ATP), % of control: 111

With Pon1 #1, what was measured?
GFP, % of control: 95.6; viability (ATP), % of control: 90.7

How did the screen score Pon1 #2?
GFP, % of control: 103; viability (ATP), % of control: 108

What did the screen give for Pon1 #3?
GFP, % of control: 61.2; viability (ATP), % of control: 63.6

What is on record for Sele #1?
GFP, % of control: 37; viability (ATP), % of control: 36.6

How did the screen score Sele #2?
GFP, % of control: 88.5; viability (ATP), % of control: 71.3

With Cyfip1 #1, what was measured?
GFP, % of control: 41.9; viability (ATP), % of control: 68.1

For Cyfip1 #2, what does the deposit list?
GFP, % of control: 90.6; viability (ATP), % of control: 99.5

For Cyfip1 #3, how do the results read?
GFP, % of control: 47.6; viability (ATP), % of control: 40.8

7 of these entries in another layout.
| gene symbol | reagent | GFP, % of control | viability (ATP), % of control |
| --- | --- | --- | --- |
| Cltc | 2 | 69.8 | 63.3 |
| Or4d11 | 1 | 87.5 | 90.5 |
| Or4d11 | 2 | 148 (active) | 95.5 |
| Or4d11 | 3 | 57.9 | 104 |
| Atp11c | 1 | 55.5 | 53.9 |
| Atp11c | 2 | 55.4 | 63.1 |
| Atp11c | 3 | 45.6 | 65.4 |
